Molecules are shown by their SMILES.

In the data set the test system is Male Long Evans rats. In words: Ethanol operant self-administration in rats (30 min FR3 session, 10% EtOH). It counts as in vivo, rat. To be noted: mean ± SEM. The protocol: Separate groups of rats were given the D2 antagonist eticlopride (0.005, 0.007, 0.01 mg/kg), the A2A antagonist DMPX (1, 3, 5, 7, 10 and 20 mg/kg) and the Al antagonist DPCPX (0.125, 0.25, 0.5 mg/kg) by systemic injections.
Male Long Evans rats (Harlan, Indianapolis, Ind.) weighing approximately 250 g at the beginning of the studies, were individually housed with food and water available ad libitum except when stated otherwise. They were maintained on a 12 h light/dark cycle, lights on at 7:00 am. Operant training occurred between 8:30 am and 2:00 pm. The experimental procedures were approved in advance by our Institutional Animal Care and Use Committee.
EtOH dilution (10% v/v) for self-administration was made up using 95% ethyl alcohol and tap water. Sucrose (Saccharose, Fisher Scientific, Fair Lawn, N.J., USA) solution (10% w/v) was made up with tap water. All the compounds tested were obtained from Sigma Chemical Co. (St. Louis, Mo.). The A2A antagonist DMPX (3,7-Dimethyl-1-propargylxanthine) was dissolved in warm saline. The A1 antagonist DPCPX (8-Cyclopentyl-1,3-dipropylxanthine) was dissolved in 20:80 v/v mixture of Alkamuls EL-620 (Rhodia Inc., Cranbury, N.J., USA) and phosphate buffered saline. The D2 antagonist, eticlopride, was dissolved in saline. Drugs were administered in a 1 ml/kg volume except for the group tested with 5, 7 and 20 mg/kg DMPX, in which the injection volume was 2 ml/kg as the highest DMPX soluble concentration achieved was 10 mg/ml. Drugs were prepared fresh every treatment day.
EtOH operant self-administration was carried out in standard operant chambers (Med Associates, Georgia, Vt.) housed in sound-attenuated cubicles. Each chamber (33×30.5×33 cm) contained two retractable levers against the right wall, 7 cm from the floor and 1 cm from the right or left edge of the right wall, respectively. One recessed dish positioned at 2.5 cm above floor level and 6 cm from the levers towards the center of the chamber was the reinforcer receptacle. Fluid (0.1 ml) was delivered from syringe pumps upon activation of 1 of the 2 retractable response levers. A 3 sec tone was activated upon lever pressing. […] The beginning of a training session was signaled by the onset of the house light located in the center of the wall facing the levers, at 27.2 cm above the floor. A computer controlled stimulus and fluid delivery and recorded operant responses.
Before the beginning of EtOH operant self-administration, rats were exposed to a 10% EtOH (1OE) solution as the only liquid source in their home cages for 4 days. For the next 14 days, animals were allowed free choice between 10E in tap water or tap water from graded glass tubes. At the end of this 14-day period, operant self-administration was initiated according to the sucrose fading technique (Samson, 1986) with minor modifications. Rats were restricted to 30 minutes of water per day for 2 consecutive days. On the night of the second day of water restriction, rats were placed in the operant chambers for a 12-15 hrs overnight session on an FR1 schedule (1 reinforcement of 0.1 ml per lever press) with 10% sucrose (10S) as reinforcer and both levers active. The next day, rats began the operant self-administration training. Animals were kept on water restriction for the next 4-5 days during which they received one 45 min session per day on an FR1 schedule with 10S as reinforcer and one active lever. They were then given free water in their home cages for the remainder of the experiment and were trained for 2-3 more of the above described sessions. The next day, sessions were shortened to 30 minutes and the ratio of responding was increased to FR3. EtOH was added to the sweet solution (10S10E) and rats received 3-4 sessions of this solution, followed by at least 20 sessions with 10E only. A minimum average of 0.3 g/kg EtOH consumption in 8 sessions prior to the beginning of any drug treatment was required. […]

Regarding `CCc1cc(Cl)c(OC)c(C(=O)NC[C@@H]2CCCN2CC)c1O` [eticlopride], the “number of inactive lever presses” value (eticlopride 0.005 mg/kg sc 25 min prior to session) worked out at 2.00 ± 0.58, the “number of inactive lever presses” value (eticlopride 0.007 mg/kg sc 25 min prior to session) is 1.00 ± 0.41 and the “number of inactive lever presses” value (eticlopride 0.01 mg/kg sc 25 min prior to session) is given as 1.83 ± 0.98.
On to `C#CCn1c(=O)c2c(ncn2C)n(C)c1=O` [DMPX, 3,7-Dimethyl-1-propargylxanthine], for which the “number of inactive lever presses” value by setting is: (DMPX 1 mg/kg ip 20 min prior to 30 min FR3 session) 2.60 ± 0.85; (DMPX 3 mg/kg ip 20 min prior to 30 min FR3 session) 1.50 ± 0.37; (DMPX 5 mg/kg ip 20 min prior to 30 min FR3 session) 3.56 ± 1.29; (DMPX 7 mg/kg ip 20 min prior to 30 min FR3 session) 3.93 ± 2.17; (DMPX 10 mg/kg ip 20 min prior to 30 min FR3 session) 3.60 ± 1.76; (DMPX 20 mg/kg ip 20 min prior to 30 min FR3 session) 3.87 ± 0.64.
With `CCCn1c(=O)c2[nH]c(C3CCCC3)nc2n(CCC)c1=O` [DPCPX, 8-Cyclopentyl-1,3-dipropylxanthine], the “number of inactive lever presses” value is, setting by setting: (DPCPX 0.125 mg/kg ip 15 min prior to session) 1.78 ± 0.62; (DPCPX 0.25 mg/kg ip 15 min prior to session) 2.36 ± 1.08; (DPCPX 0.5 mg/kg ip 15 min prior to session) 2.86 ± 0.88.

These data come from patent US20060128708A1, “Antagonizing an adenosine A2A receptor to ameliorate one or more components of addictive behavior” (priority 2004, published 2006).
